Assay results taken from paper PMC4231743.
Numbering of substitutions follows the chain as printed. Names may count otherwise. Results are given in words; binding and its absence hold for the method and conditions named. For part of these data: In cells and extracts the contact can be indirect. Some binding calls cover weakened binding; strength is not graded here. For part of these data: Sequences can lack the tags named with a protein.

Sequences of proteins named here, by UniProt entry; tags and fusion partners are left off.
UniProt Q9WTL8: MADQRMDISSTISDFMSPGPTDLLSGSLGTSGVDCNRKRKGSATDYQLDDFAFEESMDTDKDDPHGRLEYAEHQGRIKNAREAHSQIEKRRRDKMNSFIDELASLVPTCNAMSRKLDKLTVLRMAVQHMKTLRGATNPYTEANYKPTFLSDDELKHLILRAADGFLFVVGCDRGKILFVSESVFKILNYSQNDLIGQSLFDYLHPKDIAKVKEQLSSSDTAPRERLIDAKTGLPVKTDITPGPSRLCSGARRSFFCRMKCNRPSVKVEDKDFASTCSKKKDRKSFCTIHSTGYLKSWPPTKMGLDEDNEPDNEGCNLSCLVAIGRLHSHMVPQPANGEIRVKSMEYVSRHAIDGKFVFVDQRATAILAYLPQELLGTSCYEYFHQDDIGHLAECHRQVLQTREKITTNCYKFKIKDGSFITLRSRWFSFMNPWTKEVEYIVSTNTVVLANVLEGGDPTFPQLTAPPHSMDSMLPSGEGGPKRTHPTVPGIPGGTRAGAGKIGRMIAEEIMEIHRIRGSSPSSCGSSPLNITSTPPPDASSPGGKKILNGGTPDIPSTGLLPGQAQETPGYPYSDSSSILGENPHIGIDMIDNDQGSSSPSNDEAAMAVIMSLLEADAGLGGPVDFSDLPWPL
UniProt O00327: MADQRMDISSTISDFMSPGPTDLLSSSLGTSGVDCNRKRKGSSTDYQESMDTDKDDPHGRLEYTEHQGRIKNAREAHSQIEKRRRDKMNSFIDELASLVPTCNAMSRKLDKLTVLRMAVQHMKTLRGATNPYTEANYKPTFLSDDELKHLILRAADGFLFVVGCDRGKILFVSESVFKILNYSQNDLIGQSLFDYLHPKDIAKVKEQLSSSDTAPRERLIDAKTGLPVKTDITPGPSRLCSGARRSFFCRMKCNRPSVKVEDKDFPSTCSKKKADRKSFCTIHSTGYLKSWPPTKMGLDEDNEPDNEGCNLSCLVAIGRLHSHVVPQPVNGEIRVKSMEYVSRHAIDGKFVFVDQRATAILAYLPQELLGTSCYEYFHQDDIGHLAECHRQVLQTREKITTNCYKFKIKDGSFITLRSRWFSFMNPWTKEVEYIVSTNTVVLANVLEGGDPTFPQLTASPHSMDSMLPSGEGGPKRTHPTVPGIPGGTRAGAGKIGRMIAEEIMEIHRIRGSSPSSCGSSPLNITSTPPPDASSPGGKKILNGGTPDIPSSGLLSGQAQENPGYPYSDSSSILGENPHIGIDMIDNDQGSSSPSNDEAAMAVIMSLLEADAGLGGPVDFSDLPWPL
UniProt O54943: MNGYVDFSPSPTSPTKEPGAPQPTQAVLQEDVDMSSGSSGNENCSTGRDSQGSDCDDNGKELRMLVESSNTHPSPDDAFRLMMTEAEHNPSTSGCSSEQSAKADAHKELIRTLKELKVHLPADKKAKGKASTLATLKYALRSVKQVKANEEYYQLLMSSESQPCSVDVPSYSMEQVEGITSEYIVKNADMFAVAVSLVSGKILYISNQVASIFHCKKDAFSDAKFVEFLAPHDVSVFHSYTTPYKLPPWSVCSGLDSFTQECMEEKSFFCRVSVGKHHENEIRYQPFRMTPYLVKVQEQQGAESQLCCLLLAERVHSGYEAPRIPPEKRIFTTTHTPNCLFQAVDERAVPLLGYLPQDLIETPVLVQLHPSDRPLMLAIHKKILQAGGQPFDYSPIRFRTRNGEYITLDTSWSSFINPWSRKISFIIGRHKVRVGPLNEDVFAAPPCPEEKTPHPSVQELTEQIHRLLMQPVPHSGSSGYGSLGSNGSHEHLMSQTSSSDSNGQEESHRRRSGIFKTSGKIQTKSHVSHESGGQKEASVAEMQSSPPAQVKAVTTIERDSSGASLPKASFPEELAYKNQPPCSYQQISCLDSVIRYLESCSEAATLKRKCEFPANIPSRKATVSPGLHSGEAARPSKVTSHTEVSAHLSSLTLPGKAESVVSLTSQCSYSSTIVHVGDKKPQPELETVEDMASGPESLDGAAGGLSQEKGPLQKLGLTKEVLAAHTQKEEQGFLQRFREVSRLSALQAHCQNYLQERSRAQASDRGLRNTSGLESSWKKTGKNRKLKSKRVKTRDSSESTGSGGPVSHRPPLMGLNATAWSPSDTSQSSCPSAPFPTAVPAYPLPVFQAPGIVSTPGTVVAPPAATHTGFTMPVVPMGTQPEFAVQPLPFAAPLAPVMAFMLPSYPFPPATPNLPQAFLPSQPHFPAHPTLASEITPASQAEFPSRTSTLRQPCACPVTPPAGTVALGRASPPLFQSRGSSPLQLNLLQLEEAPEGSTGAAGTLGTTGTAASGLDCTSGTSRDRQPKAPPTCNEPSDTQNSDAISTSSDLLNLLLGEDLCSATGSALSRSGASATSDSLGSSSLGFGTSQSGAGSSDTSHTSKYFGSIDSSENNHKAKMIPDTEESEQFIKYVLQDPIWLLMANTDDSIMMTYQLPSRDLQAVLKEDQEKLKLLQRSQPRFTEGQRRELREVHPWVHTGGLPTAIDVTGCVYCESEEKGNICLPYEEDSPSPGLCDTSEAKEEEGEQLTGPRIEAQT

Legend:
[1] = target: T1, GST-PXDLS*3 recombinant peptide (UniProt P37275); test: pull-down; recombinant GST peptides coupled to glutathione beads, incubated with mouse liver nuclear extracts; SDS-PAGE and immunoblot; only the target purified
T1 sequence: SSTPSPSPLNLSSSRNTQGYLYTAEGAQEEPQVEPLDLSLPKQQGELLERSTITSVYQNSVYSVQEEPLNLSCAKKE

[2] = target: T2, REV-ERBα (endogenous, mouse liver nuclear extract) (mouse (endogenous in liver)) (UniProt Q3UV55); test: co-IP; mouse liver nuclear extracts (ZT4), immunoprecipitation with anti BMAL1 or anti REV-ERBα antibodies, 12 h at 4°C, protein A/G agarose; Rap1 antibody as negative control
T2 sequence: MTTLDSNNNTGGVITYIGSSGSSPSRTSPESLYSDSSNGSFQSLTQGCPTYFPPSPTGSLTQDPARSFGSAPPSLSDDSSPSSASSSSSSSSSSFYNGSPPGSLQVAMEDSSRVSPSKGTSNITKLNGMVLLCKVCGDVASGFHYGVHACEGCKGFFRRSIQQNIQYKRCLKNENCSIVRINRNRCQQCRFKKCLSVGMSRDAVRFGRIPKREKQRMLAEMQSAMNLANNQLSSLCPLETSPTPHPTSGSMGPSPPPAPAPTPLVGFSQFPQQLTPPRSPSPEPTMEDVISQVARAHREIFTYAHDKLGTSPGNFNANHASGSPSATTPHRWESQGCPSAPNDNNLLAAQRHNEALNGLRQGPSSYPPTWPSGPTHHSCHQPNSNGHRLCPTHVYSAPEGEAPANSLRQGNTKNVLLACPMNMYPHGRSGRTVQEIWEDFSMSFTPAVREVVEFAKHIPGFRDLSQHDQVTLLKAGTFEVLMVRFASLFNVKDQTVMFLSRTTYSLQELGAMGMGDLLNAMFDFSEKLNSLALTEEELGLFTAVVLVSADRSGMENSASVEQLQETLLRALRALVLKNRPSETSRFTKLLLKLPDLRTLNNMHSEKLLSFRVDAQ

[3] = target: T3, Flag-PXDLS*3 peptide (expressed in HEK 293T) (UniProt P37275); test: pull-down; Flag tagged baits expressed in HEK 293T, held on Flag antibody conjugated beads, stringent washes, then incubated with mouse liver nuclear extracts; SDS-PAGE and immunoblot; only the target purified
T3 sequence: T1 sequence

[4] = target: T4, Flag-PXDLS*3 peptide (expressed in NIH3T3) (UniProt P37275); test: co-IP; Flag tagged transgenes expressed in NIH3T3 cells, lysates immunoprecipitated with Flag antibody conjugated beads; endogenous proteins by immunoblot
T4 sequence: T1 sequence

[5] = target: T3, Flag-PXDLS*3 peptide (expressed in HEK 293T); test: co-IP; Flag tagged transgenes expressed in HEK 293T cells, lysates immunoprecipitated with Flag antibody conjugated beads; endogenous proteins by immunoblot
[6] = target: BMAL1 (endogenous, mouse liver nuclear extract) (mouse (endogenous in liver)) (UniProt Q9WTL8); test: co-IP; mouse liver nuclear extracts (ZT4), immunoprecipitation with anti BMAL1 or anti REV-ERBα antibodies, 12 h at 4°C, protein A/G agarose; Rap1 antibody as negative control
BMAL1-Flag (mouse) = BMAL1-Flag (mouse) (UniProt Q9WTL8); test: co-IP; BMAL1-Flag and REV-ERBα (wild type or P72A) co-expressed in NIH3T3 cells, lysates immunoprecipitated with Flag antibody; Rap1 antibody as control
[7] = target: recombinant His-BMAL1 (mouse) (UniProt Q9WTL8); test: pull-down; recombinant His-BMAL1 coupled to beads and in vitro translated [35S] labeled REV-ERBα in the presence or absence of excess recombinant GST-PXDLS*3 or GST-Mut PXDLS*3 peptide; autoradiography; only the target purified
[8] = target: recombinant His-BMAL1 (mouse) (UniProt Q9WTL8); test: pull-down; recombinant His-BMAL1 coupled to beads, incubated with in vitro translated [35S] labeled REV-ERBα for 3 h at room temperature, washed with NP40 buffer (150 mM NaCl, 100 mM Tris pH-7.5, 2 mM EDTA, 1%NP40); autoradiography; only the target purified
[9] = target: recombinant His-BMAL1 (mouse) (UniProt Q9WTL8); test: pull-down; competition: excess recombinant GST-PXDLS*3 added to His-BMAL1 on beads with in vitro translated [35S] labeled REV-ERBα; read by loss of REV-ERBα; both purified

Molecule: BMAL1 (endogenous, mouse liver nuclear extract) (from UniProt Q9WTL8 1-632)
- binding [1]: binds
- binding [2]: binds
- binding [3]: binds

Molecule: BMAL1 (endogenous, NIH3T3 cells) (from UniProt Q9WTL8 1-632)
- binding [4]: binds

Molecule: BMAL1 (endogenous, HEK 293T cells) (from UniProt O00327 1-626)
- binding [5]: binds

Molecule: PER2 (endogenous, NIH3T3 cells) (from UniProt O54943 1-1257)
- binding [4]: no binding

B1: REV-ERBα (endogenous, mouse liver nuclear extract) (protein, UniProt Q3UV55 1-615)
chain: T2 sequence
- binding [6]: binds

B2: CLOCK (endogenous, mouse liver nuclear extract) (protein, UniProt O08785 1-855)
chain: MVFTVSCSKMSSIVDRDDSSIFDGLVEEDDKDKAKRVSRNKSEKKRRDQFNVLIKELGSMLPGNARKMDKSTVLQKSIDFLRKHKETTAQSDASEIRQDWKPTFLSNEEFTQLMLEALDGFFLAIMTDGSIIYVSESVTSLLEHLPSDLVDQSIFNFIPEGEHSEVYKILSTHLLESDSLTPEYLKSKNQLEFCCHMLRGTIDPKEPSTYEYVRFIGNFKSLTSVSTSTHNGFEGTIQRTHRPSYEDRVCFVATVRLATPQFIKEMCTVEEPNEEFTSRHSLEWKFLFLDHRAPPIIGYLPFEVLGTSGYDYYHVDDLENLAKCHEHLMQYGKGKSCYYRFLTKGQQWIWLQTHYYITYHQWNSRPEFIVCTHTVVSYAEVRAERRRELGIEESLPETAADKSQDSGSDNRINTVSLKEALERFDHSPTPSASSRSSRKSSHTAVSDPSSTPTKIPTDTSTPPRQHLPAHEKMTQRRSSFSSQSINSQSVGPSLTQPAMSQAANLPIPQGMSQFQFSAQLGAMQHLKDQLEQRTRMIEANIHRQQEELRKIQEQLQMVHGQGLQMFLQQSNPGLNFGSVQLSSGNSNIQQLTPVNMQGQVVPANQVQSGHISTGQHMIQQQTLQSTSTQQSQQSVMSGHSQQTSLPSQTPSTLTAPLYNTMVISQPAAGSMVQIPSSMPQNSTQSATVTTFTQDRQIRFSQGQQLVTKLVTAPVACGAVMVPSTMLMGQVVTAYPTFATQQQQAQTLSVTQQQQQQQQQPPQQQQQQQQSSQEQQLPSVQQPAQAQLGQPPQQFLQTSRLLHGNPSTQLILSAAFPLQQSTFPPSHHQQHQPQQQQQLPRHRTDSLTDPSKVQPQ
- binding [1]: binds
- binding [6]: binds
- binding [2]: binds
- binding [3]: binds

B3: REV-ERBα (wild type, expressed in NIH3T3) (protein, UniProt Q3UV55 1-615)
chain: T2 sequence
- binding (BMAL1-Flag (mouse)): binds

B4: REV-ERBα P72A (PXDLS mutant, expressed in NIH3T3) (protein, UniProt Q3UV55 1-615)
chain: T2 sequence with P72A
- binding (BMAL1-Flag (mouse)): binds

B5: in vitro translated [35S] labeled REV-ERBα (protein, UniProt Q3UV55 1-615)
chain: T2 sequence
modifications: [35S] methionine labeled
- binding [7]: binds
- binding [8]: binds

B6: GST-PXDLS*3 recombinant peptide (peptide, UniProt P37275 700-776)
chain: T1 sequence
- binding [9]: binds

B7: CRY1 (endogenous, NIH3T3 cells) (protein, UniProt P97784 1-606)
chain: MGVNAVHWFRKGLRLHDNPALKECIQGADTIRCVYILDPWFAGSSNVGINRWRFLLQCLEDLDANLRKLNSRLFVIRGQPADVFPRLFKEWNITKLSIEYDSEPFGKERDAAIKKLATEAGVEVIVRISHTLYDLDKIIELNGGQPPLTYKRFQTLVSKMEPLEMPADTITSDVIGKCMTPLSDDHDEKYGVPSLEELGFDTDGLSSAVWPGGETEALTRLERHLERKAWVANFERPRMNANSLLASPTGLSPYLRFGCLSCRLFYFKLTDLYKKVKKNSSPPLSLYGQLLWREFFYTAATNNPRFDKMEGNPICVQIPWDKNPEALAKWAEGRTGFPWIDAIMTQLRQEGWIHHLARHAVACFLTRGDLWISWEEGMKVFEELLLDADWSINAGSWMWLSCSSFFQQFFHCYCPVGFGRRTDPNGDYIRRYLPVLRGFPAKYIYDPWNAPEGIQKVAKCLIGVNYPKPMVNHAEASRLNIERMKQIYQQLSRYRGLGLLASVPSNSNGNGGLMGYAPGENVPSCSSSGNGGLMGYAPGENVPSCSGGNCSQGSGILHYAHGDSQQTHSLKQGRSSAGTGLSSGKRPSQEEDAQSVGPKVQRQSSN
- binding [4]: no binding

B8: CRY1 (endogenous, HEK 293T cells) (protein, UniProt Q16526 1-586)
chain: MGVNAVHWFRKGLRLHDNPALKECIQGADTIRCVYILDPWFAGSSNVGINRWRFLLQCLEDLDANLRKLNSRLFVIRGQPADVFPRLFKEWNITKLSIEYDSEPFGKERDAAIKKLATEAGVEVIVRISHTLYDLDKIIELNGGQPPLTYKRFQTLISKMEPLEIPVETITSEVIEKCTTPLSDDHDEKYGVPSLEELGFDTDGLSSAVWPGGETEALTRLERHLERKAWVANFERPRMNANSLLASPTGLSPYLRFGCLSCRLFYFKLTDLYKKVKKNSSPPLSLYGQLLWREFFYTAATNNPRFDKMEGNPICVQIPWDKNPEALAKWAEGRTGFPWIDAIMTQLRQEGWIHHLARHAVACFLTRGDLWISWEEGMKVFEELLLDADWSINAGSWMWLSCSSFFQQFFHCYCPVGFGRRTDPNGDYIRRYLPVLRGFPAKYIYDPWNAPEGIQKVAKCLIGVNYPKPMVNHAEASRLNIERMKQIYQQLSRYRGLGLLASVPSNPNGNGGFMGYSAENIPGCSSSGSCSQGSGILHYAHGDSQQTHLLKQGRSSMGTGLSGGKRPSQEEDTQSIGPKVQRQSTN
- binding [5]: no binding
